# Experimental data from US20200317791A1.
# Results are given in words; binding and its absence hold for the method and conditions named. For some of these results: A result given as binding can be weak or reduced; the word gives no strength.
# B1: CW6B130 (antibody, V domains shown)
# VH: QLQLQESGPGLVKPSETLSLTCTVSGASISSINYYWGWIRQPPGKGLEWIGSFYYSGNTYYNPSLKSRVTISVDTSKNYFSLKLNSVTAADTAVYYCAREYYDSSGYYPFEPWGQGTLVTVSS
# VL: SYVLTQPPSVSVAPGQTARITCGGDNIGSESVHWYQQKPGQAPVLVVYDDTDRPSGIPERFSGSKSGTTATLTISWVEAGDEADYYCQVWDSSSDHVVFGGGTKLTVL
# Columns and labels:
# Cw18_C*18:02 (human) = assay: LABScreen beads, 10 µg/ml antibody
# Cw5_C*05:01 (human) = assay: LABScreen beads, 10 µg/ml antibody
# Cw4_C*04:01 (human) = assay: LABScreen beads, 10 µg/ml antibody
# Cw12_C*12:03 (human) = assay: LABScreen beads, 10 µg/ml antibody
# Cw14_C*14:02 (human) = assay: LABScreen beads, 10 µg/ml antibody
# Cw17_C*17:01 (human) = assay: LABScreen beads, 10 µg/ml antibody
# Cw10_C*03:04 (human) = assay: LABScreen beads, 10 µg/ml antibody
# Cw8_C*08:01 (human) = assay: LABScreen beads, 10 µg/ml antibody
# Cw2_C*02:02 (human) = assay: LABScreen beads, 10 µg/ml antibody
# Cw1_C*01:02 (human) = assay: LABScreen beads, 10 µg/ml antibody
# Cw16_C*16:01 (human) = assay: LABScreen beads, 10 µg/ml antibody
# Cw9_C*03:03 (human) = assay: LABScreen beads, 10 µg/ml antibody
# Cw15_C*15:02 (human) = assay: LABScreen beads, 10 µg/ml antibody
# [1] = biological target: Cw6_C*06:02 (human), C*06:0; assay: LABScreen beads, 10 µg/ml antibody
# [2] = biological target: Cw7_C*07:02 (human), C*07:0; assay: LABScreen beads, 10 µg/ml antibody
# Cw10_C*03:02 (human) = assay: LABScreen beads, 10 µg/ml antibody
# [3] = biological target: B7,Bw6_B*07:02 (human), B*07:0; assay: LABScreen beads
# B75,Bw6_B*15:11 (human) = assay: LABScreen beads
# B63,Bw4_B*15:16 (human) = assay: LABScreen beads
# B42,Bw6_B*42:01 (human) = assay: LABScreen beads
# B64,Bw6_B*14:01 (human) = assay: LABScreen beads
# B38,Bw4_B*38:01 (human) = assay: LABScreen beads
# B45,Bw6_B*45:01 (human) = assay: LABScreen beads
# B18,Bw6_B*18:01 (human) = assay: LABScreen beads
# B41,Bw6_B*41:01 (human) = assay: LABScreen beads
# [4] = biological target: B27,Bw4_B*27:05 (human), B*27:0; assay: LABScreen beads
# B59,Bw4_B*59:01 (human) = assay: LABScreen beads
# B62,Bw6_B*15:01 (human) = assay: LABScreen beads
# B52,Bw4_B*52:01 (human) = assay: LABScreen beads
# B51,Bw4_B*51:02 (human) = assay: LABScreen beads
# B78,Bw6_B*78:01 (human) = assay: LABScreen beads
# B50,Bw6_B*50:01 (human) = assay: LABScreen beads
# B8,Bw6_B*08:01 (human) = assay: LABScreen beads
# B27,Bw6_B*27:08 (human) = assay: LABScreen beads
# B55,Bw6_B*55:01 (human) = assay: LABScreen beads
# B37,Bw4_B*37:01 (human) = assay: LABScreen beads
# B13,Bw4_B*13:02 (human) = assay: LABScreen beads
# B47,Bw4_B*47:01 (human) = assay: LABScreen beads
# B39,Bw6_B*39:01 (human) = assay: LABScreen beads
# B44,Bw4_B*44:03 (human) = assay: LABScreen beads
# B35,Bw6_B*35:01 (human) = assay: LABScreen beads
# B81,Bw6_B*81:01 (human) = assay: LABScreen beads
# B61,Bw6_B*40:02 (human) = assay: LABScreen beads
# B61,Bw6_B*40:06 (human) = assay: LABScreen beads
# B44,Bw4_B*44:02 (human) = assay: LABScreen beads
# B75,Bw6_B*15:02 (human) = assay: LABScreen beads
# B57,Bw4_B*57:01 (human) = assay: LABScreen beads
# B58,Bw4_B*58:01 (human) = assay: LABScreen beads
# B60,Bw6_B*40:01 (human) = assay: LABScreen beads
# B49,Bw4_B*49:01 (human) = assay: LABScreen beads
# B77,Bw4_B*15:13 (human) = assay: LABScreen beads
# B54,Bw6_B*54:01 (human) = assay: LABScreen beads
# B72,Bw6_B*15:03 (human) = assay: LABScreen beads
# B57,Bw4_B*57:03 (human) = assay: LABScreen beads
# B53,Bw4_B*53:01 (human) = assay: LABScreen beads
# B56,Bw6_B*56:01 (human) = assay: LABScreen beads
# B82,Bw6_B*82:01 (human) = assay: LABScreen beads
# B48,Bw6_B*48:01 (human) = assay: LABScreen beads
# B65,Bw6_B*14:02 (human) = assay: LABScreen beads
# B51,Bw4_B*51:01 (human) = assay: LABScreen beads
# B67,Bw6_B*67:01 (human) = assay: LABScreen beads
# B76,Bw6_B*15:12 (human) = assay: LABScreen beads
# B71,Bw6_B*15:10 (human) = assay: LABScreen beads
# B13,Bw4_B*13:01 (human) = assay: LABScreen beads
binder,measurement,setting,value
B1,binding,Cw18_C*18:02 (human),binds
same,binding,Cw5_C*05:01 (human),binds
same,binding,Cw4_C*04:01 (human),binds
same,binding,Cw12_C*12:03 (human),binds
same,binding,Cw14_C*14:02 (human),binds
same,binding,Cw17_C*17:01 (human),binds
same,binding,Cw10_C*03:04 (human),binds
same,binding,Cw8_C*08:01 (human),binds
same,binding,Cw2_C*02:02 (human),binds
same,binding,Cw1_C*01:02 (human),binds
same,binding,Cw16_C*16:01 (human),binds
same,binding,Cw9_C*03:03 (human),binds
same,binding,Cw15_C*15:02 (human),binds
same,binding,[1],binds
same,binding,[2],binds
same,binding,Cw10_C*03:02 (human),binds
same,binding,[3],no binding (tested: 10 µg/ml)
same,binding,"B75,Bw6_B*15:11 (human)",no binding (tested: 10 µg/ml)
same,binding,"B63,Bw4_B*15:16 (human)",no binding (tested: 10 µg/ml)
same,binding,"B42,Bw6_B*42:01 (human)",no binding (tested: 10 µg/ml)
same,binding,"B64,Bw6_B*14:01 (human)",no binding (tested: 10 µg/ml)
same,binding,"B38,Bw4_B*38:01 (human)",no binding (tested: 10 µg/ml)
same,binding,"B45,Bw6_B*45:01 (human)",no binding (tested: 10 µg/ml)
same,binding,"B18,Bw6_B*18:01 (human)",no binding (tested: 10 µg/ml)
same,binding,"B41,Bw6_B*41:01 (human)",no binding (tested: 10 µg/ml)
same,binding,[4],no binding (tested: 10 µg/ml)
same,binding,"B59,Bw4_B*59:01 (human)",no binding (tested: 10 µg/ml)
same,binding,"B62,Bw6_B*15:01 (human)",no binding (tested: 10 µg/ml)
same,binding,"B52,Bw4_B*52:01 (human)",no binding (tested: 10 µg/ml)
same,binding,"B51,Bw4_B*51:02 (human)",no binding (tested: 10 µg/ml)
same,binding,"B78,Bw6_B*78:01 (human)",no binding (tested: 10 µg/ml)
same,binding,"B50,Bw6_B*50:01 (human)",no binding (tested: 10 µg/ml)
same,binding,"B8,Bw6_B*08:01 (human)",no binding (tested: 10 µg/ml)
same,binding,"B27,Bw6_B*27:08 (human)",no binding (tested: 10 µg/ml)
same,binding,"B55,Bw6_B*55:01 (human)",no binding (tested: 10 µg/ml)
same,binding,"B37,Bw4_B*37:01 (human)",no binding (tested: 10 µg/ml)
same,binding,"B13,Bw4_B*13:02 (human)",no binding (tested: 10 µg/ml)
same,binding,"B47,Bw4_B*47:01 (human)",no binding (tested: 10 µg/ml)
same,binding,"B39,Bw6_B*39:01 (human)",no binding (tested: 10 µg/ml)
same,binding,"B44,Bw4_B*44:03 (human)",no binding (tested: 10 µg/ml)
same,binding,"B35,Bw6_B*35:01 (human)",no binding (tested: 10 µg/ml)
same,binding,"B81,Bw6_B*81:01 (human)",no binding (tested: 10 µg/ml)
same,binding,"B61,Bw6_B*40:02 (human)",no binding (tested: 10 µg/ml)
same,binding,"B61,Bw6_B*40:06 (human)",no binding (tested: 10 µg/ml)
same,binding,"B44,Bw4_B*44:02 (human)",no binding (tested: 10 µg/ml)
same,binding,"B75,Bw6_B*15:02 (human)",no binding (tested: 10 µg/ml)
same,binding,"B57,Bw4_B*57:01 (human)",no binding (tested: 10 µg/ml)
same,binding,"B58,Bw4_B*58:01 (human)",no binding (tested: 10 µg/ml)
same,binding,"B60,Bw6_B*40:01 (human)",no binding (tested: 10 µg/ml)
same,binding,"B49,Bw4_B*49:01 (human)",no binding (tested: 10 µg/ml)
same,binding,"B77,Bw4_B*15:13 (human)",no binding (tested: 10 µg/ml)
same,binding,"B54,Bw6_B*54:01 (human)",no binding (tested: 10 µg/ml)
same,binding,"B72,Bw6_B*15:03 (human)",no binding (tested: 10 µg/ml)
same,binding,"B57,Bw4_B*57:03 (human)",no binding (tested: 10 µg/ml)
same,binding,"B53,Bw4_B*53:01 (human)",no binding (tested: 10 µg/ml)
same,binding,"B56,Bw6_B*56:01 (human)",no binding (tested: 10 µg/ml)
same,binding,"B82,Bw6_B*82:01 (human)",no binding (tested: 10 µg/ml)
same,binding,"B48,Bw6_B*48:01 (human)",no binding (tested: 10 µg/ml)
same,binding,"B65,Bw6_B*14:02 (human)",no binding (tested: 10 µg/ml)
same,binding,"B51,Bw4_B*51:01 (human)",no binding (tested: 10 µg/ml)
same,binding,"B67,Bw6_B*67:01 (human)",no binding (tested: 10 µg/ml)
same,binding,"B76,Bw6_B*15:12 (human)",no binding (tested: 10 µg/ml)
same,binding,"B71,Bw6_B*15:10 (human)",no binding (tested: 10 µg/ml)
same,binding,"B13,Bw4_B*13:01 (human)",no binding (tested: 10 µg/ml)
